Test system: MCF-7
Test: IC50 in wild-type MCF-7 cells (Example 9)
Format: cell-based
Details: Homo sapiens, MCF7
Excerpt: Accordingly, MCF-7 cells resistant to PTX were generated by exposure to increasing PTX concentrations (Table 9).

IC50: 0.027 µM
SMILES: CC(=O)O[C@H]1C(=O)[C@@]2(C)[C@H]([C@H](OC(=O)c3ccccc3)[C@]3(O)C[C@H](OC(=O)[C@H](O)[C@@H](NC(=O)c4ccccc4)c4ccccc4)C(C)=C1C3(C)C)[C@]1(OC(C)=O)CO[C@@H]1C[C@@H]2O [PTX, Paclitaxel]
